Data as given in PubChem BioAssay AID686943 (Drosophila RNAi Screening Center, 2013).
Purpose: 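Knockdowns that increase or decrease active ERK after insulin receptor stimulation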 (primary screen). Cells: Drosophila S2R+ haemocyte-like cells expressing YFP-tagged ERK (Rolled). Reagent: long dsRNA against Drosophila genes. Challenge: insulin stimulation versus unstimulated cells; dose and duration not given. Detection: 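Antibody staining for doubly phosphorylated ERK divided by ERK-YFP signal, as plate z-scores, in insulin-treated and untreated cells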. Reading the numbers: replicate 1, z-score of dpERK with insulin and replicate 2, z-score of dpERK with insulin: higher = more active ERK per ERK-YFP after insulin; replicate 1, z-score of dpERK under basal conditions: higher = more basal active ERK per ERK-YFP; replicate 1, z-score of ERK-YFP with insulin: higher = more YFP-tagged ERK signal.
In all, the deposit lists about 23,000 reagents; shown is an unselected part of those that have a named target and a result. 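Extra replicates exist only for a retested subset of genes; insulin dose and duration not given; both raised and lowered dpERK matter.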 Names joined by + are all predicted targets of the reagent. No sequences are given here. The record does not give: the amount of reagent, the time to read-out.

no.	Target gene	amplicon	replicate 1, z-score of dpERK with insulin	replicate 2, z-score of dpERK with insulin	replicate 1, z-score of dpERK under basal conditions	replicate 1, z-score of ERK-YFP with insulin
1	CG32099	DRSC21352	0.53	0.15	0.84	-0.6
2	CG7492	DRSC10855	0.03	0.93	-0.25	0.37
3	CanA1	DRSC16600	-0.47	-0.1	-0.49	0.59
4	IscU	DRSC16572	-1.05	-0.1	-0.85	-0.39
5	Uba3	DRSC06377	0.5	-0.1	0.98	0.75
6	CG14421	DRSC17918	1.04	-0.79	-0.24	-0.01
7	Cyp28a5	DRSC03297	0.95	0.33	1.55	0.83
8	Prosbeta7	DRSC12186	-3.96	-3.65	-3.55	1.53
9	Abl	DRSC09661	0.07	1.03	-1.35	0.19
10	CG13653	DRSC14653	0.22	-0.1	0.79	-0.1
11	CG13742 + CNT1	DRSC06413	0.26	0.46	0.22	0.06
12	sals	DRSC14925	1.02	-0.05	-0.39	-2.82
13	sals	DRSC16113	-0.14	0.24	-0.11	-0.34
14	CG2233	DRSC18217	-0.81	-0.04	-0.46	-0.07
15	CG6055	DRSC02923	0.73	0.54	0.16	0.08
16	Cyp4p2	DRSC07373	0.46	0.89	-0.95	0.13
17	yl	DRSC20387	0.36	0.57	-0.33	0.1
18	CG30403	DRSC03889	0.31	0.95	0.56	0.52
19	ced-6	DRSC07591	0.25	0.77	-0.7	-0.31
20	Tao	DRSC19573	1.24	-1.07	1.14	0.16
21	Tao	DRSC19574	-1.78	-0.07	1.18	1.76
22	Tao	DRSC22639	1.1	1.34	-0.85	-1.66
23	rg	DRSC17377	0.4	2.26	1.55	-0.73
24	rg	DRSC17726	0.26	1.39	-1.02	0.13
25	rg	DRSC18049	0.33	-0.22	1.07	0.37
